Experimental data from the supplement of paper PMC8104966.
Values joined by “and” are separate entries in the source; they are usually repeats but may differ in a detail not shown here. Equal values may be shown once. The list shows a part of the results. This data set is noisy: repeats of one test often differ as much as different tests do.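 U2OS cells carrying ACE2 were mixed with U2OS cells carrying full-length spike, and fusion was scored by imaging as the share of nuclei showing both cell types' fluorescent markers. A compound counts as an inhibitory hit when it is non-toxic and its fusion z-score falls below -3, meaning more than three standard deviations below the plate's DMSO wells.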

Test system: U2OS ACE2 x SARS-CoV-2 spike co-culture
Experiment: cell-cell fusion (fraction fused) z-score vs plate DMSO control; higher = more fusion
Conditions: 30 µM; 5 h; toxicity class: non-toxic, passed QC

| SMILES | cell-cell fusion (z-score) |
| --- | --- |
| COC(=O)[C@H]1[C@H]2C[C@H]3c4[nH]c5ccccc5c4CCN3C[C@H]2CC[C@@H]1O.Cl [Rauwolscine hydrochloride] | inactive: 1.7 |
| CN1CCCN=C1COC(=O)C(O)(c1ccccc1)C1CCCCC1.Cl (stereo unspecified) | inactive: 3.62 |
| CCn1ccnc1CC1COc2ccccc2O1.Cl (stereo unspecified) [Imiloxan hydrochloride] | inactive: 1.92 |
| Cl.c1ccc(CC2=NCCN2)cc1 [Tolazoline hydrochloride] | inactive: 1.06 |
| COC(=O)C[C@H]1C(C)(C)C(=O)[C@@H]2CC3=C(CC[C@]4(C)C3=CC(=O)O[C@H]4c3ccoc3)[C@@]1(C)C2=O | inactive: 2.93 |
| CCN1CCC[C@H]1CNC(=O)c1c(O)c(Cl)cc(Cl)c1OC.O=C(O)C(O)C(O)C(=O)O [S(+)-Raclopride L-tartrate] | inactive: 2.65 |
| CC(=O)c1c(C)c2cnc(Nc3ccc(N4CCNCC4)cn3)nc2n(C2CCCC2)c1=O.Cl | inactive: -0.293 and inactive: -0.128 |
| N#Cc1ccc(NC(=O)Nc2ccccc2Br)c2[nH]nnc12 | inactive: 0.269 |
| Cc1ccc(O)c([C@H](CCN(C(C)C)C(C)C)c2ccccc2)c1.O=C(O)[C@H](O)[C@@H](O)C(=O)O [Tolterodine tartrate] | inactive: 1.35 |
| Cl.NC(CO)C(=O)NNCc1ccc(O)c(O)c1O (stereo unspecified) [Benserazide hydrochloride] | inactive: 0.855 |
| O=C(O)c1cc2cc(F)ccc2[nH]1 | inactive: 2.82 |
| O=C1CC2OCC=C3CN4CC[C@]56c7ccccc7N1C5[C@H]2[C@H]3CC46.O=S(=O)(O)O (stereo partly specified) | inactive: 2.72 |
| CC1=C(CCC(O)=O)/C2=C/C3=N/C(=C\C4=C(C)C(C=C)=C(N4)/C=C4\N=C(\C=C\1/N\2)C(C=C)=C4C)/C(C)=C3CCC(O)=O [Protoporphyrin IX disodium] | inactive: 1.26 |
| CC(C[N+](C)(C)C)OC(N)=O.[Cl-] (stereo unspecified) [Bethanechol chloride] | inactive: 0.971 |
| CCCOC(=O)c1c(-c2ccccc2)nc(CC)c(C(=O)SCC)c1CCC | inactive: 3.03 |
| Nc1nc(-n2cc(C(=O)O)c(=O)c3cc(F)c(N4CC(O)C4)c(Cl)c32)c(F)cc1F [Delafloxacin] | inactive: 0.366 |
| CC(=O)O[C@H]1CC[C@@]2(C)C(=CCC3C2CC[C@]2(C)C(=O)CCC32)C1 (stereo partly specified) | inactive: 2.79 |
| O=C1CN(/N=C/c2ccc(-c3ccc([N+](=O)[O-])cc3)o2)C(=O)[N-]1.[Na+] [Dantrolene sodium] | inactive: 0.85 |
| CC(C(=O)O)c1ccc(-c2ccccc2)c(F)c1 (stereo unspecified) [Flurbiprofen] | inactive: 3.57 |
| O=C1N=C([O-])NC1(c1ccccc1)c1ccccc1.[Na+] [Phenytoin sodium] | inactive: 2.04 |
| CC(=O)O[C@]1(C(C)=O)CC[C@H]2[C@@H]3CCC4=CC(=O)CCC4=C3[C@@H](c3ccc(N(C)C)cc3)C[C@@]21C [Ulipristal acetate] | inactive: -1.32 |
| CC(C(=O)O)c1ccc2c(c1)[nH]c1ccc(Cl)cc12 (stereo unspecified) [Carprofen] | inactive: 1.53 |

| SMILES | cell-cell fusion (z-score) |
| --- | --- |
| COC1CC2CCC(C)C(O)(O2)C(=O)C(=O)N2CCCCC2C(=O)OC(C(C)CC2CCC(O)C(OC)C2)CC(=O)C(C)/C=C(\C)C(O)C(OC)C(=O)C(C)CC(C)/C=C/C=C/C=C/1C (stereo unspecified) | inactive: 4.27 |
| O=C(O)/C=C(\CC(=O)O)C(=O)O | inactive: 2.39 |
| C[C@]12CCC3[C@@H](CC[C@@]45O[C@@H]4C(O)=C(C#N)C[C@]35C)C1CC[C@@H]2O (stereo partly specified) | inactive: 2.12 |
| C[C@]1(Cn2ccnn2)[C@H](C(=O)O)N2C(=O)C[C@H]2S1(=O)=O [Tazobactam acid] | inactive: 2.16 |
| C#CCN[C@@H]1CCc2ccccc21 | inactive: 3.56 |
| N#Cc1ccc([C@H]2CCCC[C@H]2O)cc1C(F)(F)F | inactive: 3.01 |
| COC(C)(C)CCC[C@H](C)C/C=C/C(C)=C/C(=O)OC(C)C | inactive: -0.635 |
| C1CCc2nnnn2CC1 [Pentylenetetrazole] | inactive: 2.31 |
| C1CCc2nnnn2CC1 | inactive: 2.6 |
| CC(C)C(=O)c1c(C(C)C)nn2ccccc12 [Ibudilast] | inactive: 0.682 |
| Cc1nc(/N=N/c2ccc(S(=O)(=O)[O-])cc2S(=O)(=O)[O-])c(COP(=O)([O-])[O-])c(C=O)c1O.[Na+].[Na+].[Na+].[Na+] | inactive: -2.38 |
| CC(=O)O[C@]1(C(C)=O)CC[C@H]2[C@@H]3C=C(C)C4=CC(=O)CC[C@]4(C)[C@H]3CC[C@@]21C [Megestrol acetate] | inactive: 1.85 |
| CCN(CC)C(=O)N1CCN(C)CC1.O=C(O)CC(O)(CC(=O)O)C(=O)O | inactive: 0.286 |
| CC(=O)Oc1ccc(C(c2ccc(OC(C)=O)cc2)c2ccccn2)cc1 [Bisacodyl] | inactive: 2.31 |
| COC(=O)[C@H](c1ccccc1Cl)N1CCc2sccc2C1.O=S(=O)(O)O [(S)-(+)-Clopidogrel hydrogen sulfate] | inactive: 2.06 |
| N[C@@H](Cc1ccc(O)c(I)c1)C(=O)O [3-Iodo-L-tyrosine] | inactive: 1.76 |
| C[N+]1(C)CCOC(O)(c2ccc(-c3ccc(C4(O)C[N+](C)(C)CCO4)cc3)cc2)C1.[Br-].[Br-] (stereo unspecified) [Hemicholinium-3] | inactive: 0.366 |
| O=C(Nc1ccc([N+](=O)[O-])cc1Cl)c1cc(Cl)ccc1O | inactive: 0.852 |
| C.O=C([O-])[C@H](CC(=O)N1C[C@H]2CCCC[C@H]2C1)Cc1ccccc1 [Mitiglinide calcium] | inactive: 2.15 |
| CCC(C)C1NC(=O)C(CCN)NC(=O)C(NC(=O)C(CCN)NC(=O)C(NC(=O)C(CCN)NC(=O)CCCCC(C)C)C(C)O)CCNC(=O)C(C(C)O)NC(=O)C(CCN)NC(=O)C(CCN)NC(=O)C(C(C)CC)NC1=O.O=S(=O)(O)O.O=S(=O)(O)O (stereo unspecified) | inactive: 2.77 |
| Nc1nnc[nH]1 | inactive: 1.75 |
| COc1cccc(-c2cc(=O)c3ccccc3o2)c1N | inactive: 2.86 |

Some values from above:
cell-cell fusion (z-score) with C[N+]1(C)CCOC(O)(c2ccc(-c3ccc(C4(O)C[N+](C)(C)CCO4)cc3)cc2)C1.[Br-].[Br-] (stereo unspecified) [Hemicholinium-3] is entered as inactive: 0.366
cell-cell fusion (z-score) with C[C@]1(Cn2ccnn2)[C@H](C(=O)O)N2C(=O)C[C@H]2S1(=O)=O [Tazobactam acid] is entered as inactive: 2.16
cell-cell fusion (z-score) with C1CCc2nnnn2CC1 is entered as inactive: 2.6
cell-cell fusion (z-score) with CC(C)C(=O)c1c(C(C)C)nn2ccccc12 [Ibudilast] is entered as inactive: 0.682
cell-cell fusion (z-score) with Cc1nc(/N=N/c2ccc(S(=O)(=O)[O-])cc2S(=O)(=O)[O-])c(COP(=O)([O-])[O-])c(C=O)c1O.[Na+].[Na+].[Na+].[Na+] is entered as inactive: -2.38

Continued:

| SMILES | cell-cell fusion (z-score) |
| --- | --- |
| CNC[C@H](O)c1ccc(O)c(O)c1.O=C(O)[C@H](O)[C@@H](O)C(=O)O [Epinephrine bitartrate] | inactive: -0.975 |
| Nc1ccc(C(=O)[O-])c(O)c1.[Na+] | inactive: 0.715 |
| C[C@H]1C[C@H]2[C@@H]3CCC4=CC(=O)C=C[C@]4(C)[C@@]3(F)[C@@H](O)C[C@]2(C)[C@@]1(O)C(=O)CO [Betamethasone] | inactive: 2.94 |
| CC/C(=C(\c1ccccc1)c1ccc(OCCN(C)C)cc1)c1ccccc1 [Tamoxifen] | inactive: 3.74 |
| C[C@H](C(=O)O)c1cccc(C(=O)c2ccccc2)c1 [(S)-(+)-Ketoprofen] | inactive: -0.156 |
| CC(=O)/C(C)=N/O [2,3-Butanedione monoxime] | inactive: 0.914 |
| CCN(CC)CC(=O)Nc1c(C)cccc1C [Xylocaine] | inactive: 2.09 |
| Cl.NNc1nncc2ccccc12 [Hydralazine hydrochloride] | inactive: 2.12 |
| C[C@@H]1O[C@@H](O[C@H]2C[C@@H](O)[C@]3(CO)[C@@H]4C(CC[C@]3(O)C2)[C@@]2(O)CC[C@H](C3COC(=O)C3)[C@@]2(C)C[C@H]4O)[C@H](O)[C@H](O)[C@H]1O (stereo partly specified) [Dihydroouabain] | inactive: 0.715 |
| CCCCCCCCCCCCCC(=O)O[C@@H]1[C@@H](C)[C@@]2(O)[C@@H](C=C(CO)C[C@@]3(O)C(=O)C(C)=C[C@@H]23)[C@@H]2C(C)(C)[C@]12OC(C)=O [Phorbol 12-myristate 13-acetate] | inactive: 0.114 |
| C[C@H](N)CN1CCc2ccc(Br)cc21.C[C@H](N)CN1CCc2ccc(Br)cc21.O=C(O)/C=C/C(=O)O [VER-3323 hemifumarate salt] | inactive: 2.58 |
| O=c1cc(-c2ccc(O)cc2)oc2cc(O[C@@H]3O[C@H](CO)[C@@H](O)[C@H](O)[C@H]3O[C@@H]3OC[C@](O)(CO)[C@H]3O)cc(O)c12 | inactive: 2.38 |
| Cc1c(NC(=O)c2cccnc2)c(=O)n(-c2ccccc2)n1C | inactive: 2.81 |
| C[C@]12CCC(=O)C=C1CC[C@@H]1[C@@H]2C(=O)C[C@@]2(C)[C@H]1CC[C@]2(O)C(=O)CO [Cortisone] | inactive: 2.31 |
| Brc1c(Br)c(Br)c2[nH]nnc2c1Br | inactive: 1.6 |
| Cl.O.O=C(CCc1ccncc1)NNC(=O)N1Cc2ccccc2Oc2ccc(Cl)cc21 | inactive: 0.476 |
| O=c1c(O)c(-c2ccc(O)c(O)c2)oc2cc(O)cc(O)c12 [Quercetin dihydrate] | inactive: 0.98 |
| N#CC(C#N)=Cc1ccc(O)c(O)c1 | inactive: 1.5 |
| CCCC(C)C1(CC)C(=O)N=C([S-])NC1=O.[Na+] (stereo unspecified) | inactive: 1.7 |
| CC(=O)O[C@@]12CO[C@@H]1C[C@H](O)[C@@]1(C)C(=O)[C@H](O)C3=C(C)[C@@H](OC(=O)[C@H](O)[C@@H](NC(=O)OC(C)(C)C)c4ccccc4)C[C@@](O)([C@@H](OC(=O)c4ccccc4)C12)C3(C)C.O.O.O (stereo partly specified) | inactive: 1.18 |
| Clc1ccc2c(c1)CCc1cccnc1C2=C1CCNCC1 | active: -5.27 |
| COc1ccccc1N1CCN(CC(O)COc2cccc3ccccc23)CC1.Cl.Cl (stereo unspecified) [Naftopidil dihydrochloride] | inactive: 2.55 |
